The comparison behind a weaker result is the experiment's own reference, which may not be listed here. Tags and fusion partners may be left off the protein sequences shown.
Target: T1, ProXp-ala WT (Caulobacter crescentus) (UniProt Q9ABV9)
T1 sequence (looked up): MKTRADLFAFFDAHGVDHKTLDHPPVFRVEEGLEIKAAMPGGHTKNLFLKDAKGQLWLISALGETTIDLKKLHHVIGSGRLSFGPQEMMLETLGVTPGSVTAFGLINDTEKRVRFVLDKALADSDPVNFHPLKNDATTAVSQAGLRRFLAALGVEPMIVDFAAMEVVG
Test: NMR
Conditions: 100 μM each, NMR: same phosphate buffer, 10% D2O, 25 °C, recombinant protein, residues 1-168

Sequence: CGGCGAGUUCGCUCGCCGACC [3'pΔA76-microhelixPro]
- binding result (CSPs very similar to ΔA76, 3' phosphate on terminal C): binds more weakly

Sequence: CGGCGAGUUCGCUCGCCGACC [ΔA76-microhelixPro]
- binding result (minimal binding): binds more weakly

Sequence: GGGCGAGUUCGCUCGCCCACCA [G1:C72-microhelixPro]
- binding result: binds more weakly

From PMC10164551, “Structural basis of tRNAPro acceptor stem recognition by a bacterial trans-editing domain”
